Reference: patent US20260337228A1, “COMPOSITION AND METHOD FOR TREATING NEONATAL HYPOXIC-ISCHEMIC ENCEPHALOPATHY” (SUZHOU GLENKOL PHARMA TECHNOLOGY CO., LTD., priority 2023, published 2026)
Part of at least one peptide drawing is inferred or uncertain, most often the ends. Ends that are not written are not given here.

Columns and labels:
[1] = test system: cerebral cortical neural cells; assay: MTT assay for cell viability after oxygen-glucose deprivation; type: cell-based, neonatal rat; settings: 24 hours after injury
Method: (§1) Culture of cerebral cortical neural cells: The brains of neonatal rats were dissected, the meninges removed, and the cerebral cortex isolated. The cortical tissues were digested with papain, single cells collected, and plated onto lysine-treated coverslips and cultured in Neurobasal™ serum-free medium. To mimic hypoxic-ischemic encephalopathy injury in vitro, the Neurobasal medium was replaced with DMEM medium at 7 days in vitro (DIV7), and cells were cultured under 21% O2/5% CO2 for 2.5 hours to serve as the control group, or Neurobasal medium replaced with glucose-free DMEM medium and cells cultured under 0% O2/5% CO2 for 2.5 hours to serve as the oxygen-glucose deprivation treatment group. After treatment, both groups were returned to Neurobasal medium and cultured normally under 21% O2/5% CO2 for 24 hours.
(§2) S1 Pretreatment: At the start of the oxygen-glucose deprivation treatment, cells were simultaneously treated with S1 (final concentrations of 0.01 μM, 0.1 μM, 1 μM, or 10 μM), or with the scrambled peptide Tat-NRRRNSKLQHKKY (SEQ ID NO: 10), or with NaP (Davunetide) as a control.
MTT assay for cell viability: After 24 hours of normal culture, MTT solution was added to each group and cultured for an additional 4 hours. […] Then, measure the absorbance at 490 nm and calculate the MTT formation level, which indicates cell viability. […]

spatial learning ability = assay: Morris water maze test for spatial learning (5-day training); type: in vivo, rats; settings: 10 mg/kg, tail vein 1 hour after injury, test 4 months later
brain tissue = assay: Brain tissue injury assessment with TTC in neonatal hypoxic-ischemic encephalopathy; type: in vivo, neonatal rats (seven-day-old); settings: 10 mg/kg, tail vein injection 1 hour after injury, 48 hours post injury
spatial memory ability = assay: Morris water maze probe trial for spatial memory (day 6); type: in vivo, rats; settings: 10 mg/kg, tail vein 1 hour after injury, 4 months later, 60-second probe trial, untreated 29.49%, sham 51.16%
[2] = test system: cerebral cortical neural cells; assay: Lactate dehydrogenase (LDH) cytotoxicity assay after oxygen-glucose deprivation; type: cell-based, neonatal rat; settings: for LDH release levels: 24 hours after injury
Method: as §1, §2
Lactate dehydrogenase (LDH) kit cytotoxicity assay: After 24 hours of normal culture, collect the cell culture supernatant from each group, add the LDH assay working solution, mix thoroughly, and incubate at room temperature in the dark for 30 minutes. Then, measure the absorbance at 490 nm and calculate the LDH release level, which indicates cytotoxicity.
To evaluate the effects of S1 pretreatment on neural survival under oxygen-glucose deprivation-induced injury, NaP (final concentration 2 mM) or S1 (final concentrations 0.01 μM, 0.1 μM, 1 μM, or 10 μM) or scrambled peptides (final concentrations 0.01 μM, 0.1 μM, 1 μM, or 10 μM) were added to the cell culture medium at the initiation of oxygen-glucose deprivation treatment. At 24 hours after injury, LDH and MTT assays were performed to assess excitotoxicity and neural survival (A of FIG. 1). […] Therefore, S1 pretreatment at concentrations of 0.1-1 μM exerts neuroprotective effects on cells in vitro.

[3] = Body weight measurement to assess overall health status after neonatal hypoxic-ischemic encephalopathy injury; type: in vivo, neonatal rats (seven-day-old); settings: 10 mg/kg, tail vein 1 hour after injury
[4] = 0.1 μM and 1 μM, vs untreated oxygen-glucose deprivation group, p<0.05
[5] = 24 hours (Day 8), untreated injury 5.42%, normal 13.47%
[6] = 48 hours (Day 9), untreated injury 13.4%, normal 26.77%
[7] = any concentration (0.01 μM, 0.1 μM, 1 μM, or 10 μM), vs untreated group

With YGRKKRRQRRRKKNRNKLRRQHSY [S1] the MTT formation levels [1, 4] was “significantly increased MTT formation levels”, the escape times (spatial learning ability; days 4 and 5, p<0.05) was “significantly shorter than those of the untreated injured group on days 4 and 5” and the escape times (spatial learning ability; during training) was “consistently shorter than those of the untreated injured group during training”. The “surface damage to the brain tissue” value (brain tissue) was “surface damage was not prominent”, the “area of white necrotic brain tissue” value (brain tissue; vs untreated injury group) was “significantly reduced compared to the untreated group” and the “time spent in the target quadrant (share of probe trial duration)” value (spatial memory ability) was “about 47.86%”. The LDH release levels [2, 4] was “significantly reduced LDH release levels”, the “concentrations exerting neuroprotective effects on cells in vitro” value ([2]; S1 pretreatment, LDH and MTT assays, oxygen-glucose deprivation) was 0.1 to 1 µM and the “body weight increase relative to pre-injury” value [3, 5] was 12.9%. The “body weight increase relative to pre-injury” value [3, 6] was 23.32%.

In the case of “YGRKKRRQRRRNRRRNSKLQHKKY [scrambled peptide, reference compound]”, the MTT formation levels [1, 7] is reported as “did not alter LDH release levels or MTT formation levels”, the “surface damage to the brain tissue” value (brain tissue) is reported as “obvious surface damage to the brain tissue” and the “time spent in the target quadrant (share of probe trial duration)” value (spatial memory ability) is reported as 29.12%. For the same sequence, the LDH release levels [2, 7] was “did not alter LDH release levels”, the “body weight increase relative to pre-injury” value [3, 5] was 9.23% and the “body weight increase relative to pre-injury” value [3, 6] was 17.89%.
